Laboratory results from patent US7741280B2, “Multimeric molecules, the preparation method thereof and use of same for the preparation of medicaments” (Centre National de la Recherche Scientifique, priority 2002, dated 2010).
Entries after “also recorded” stand apart in the source; their conditions may differ. For some of these results: At least one peptide structure holds a part that was inferred or is arguable (an end, a ring closure or a residue). At least one compound was matched to its structure with a doubt left. Where a SMILES comes first, the peptide text is derived from it. Side-chain parts run from the residue outwards. [ ]: non-standard residue; d: D form. Ahx = NCCCCCC(=O)O

The chains behind the UniProt entries cited, without tags or fusion partners. Residues count along the entry.
UniProt P25942, 21-277: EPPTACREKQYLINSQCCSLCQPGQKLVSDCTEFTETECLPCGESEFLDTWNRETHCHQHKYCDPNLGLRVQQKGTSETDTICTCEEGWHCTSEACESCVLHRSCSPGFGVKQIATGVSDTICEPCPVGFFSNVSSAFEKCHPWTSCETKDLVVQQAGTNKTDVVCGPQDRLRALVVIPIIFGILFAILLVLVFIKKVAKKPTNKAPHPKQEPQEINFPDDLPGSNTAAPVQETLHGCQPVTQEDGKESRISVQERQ

Experiments:
CD40-CD40L interaction = biological target: T1, CD40-CD40L interaction (Homo sapiens, UniProt P25942); assay: Expression of CD95 induced by CD40L on BL41 cells cultured with 3T6-CD40L fibroblasts (flow cytometry); type: cell-based
T1 construct: they receive a signal via the CD40 molecule, which they express in a constitutive manner; endogenous in cells; host or cells: BL41 Burkitt's lymphoma cells (endogenous CD40), co-cultured with 3T6 fibroblasts transfected with CD40L
Experimental: Then, the affinity of these ligands for the CD40 molecule is evaluated using a biosensor (BIAcore™). The agonist or antagonist effect of the ligands was tested using two simple biological tests. In the first, the expression of the membranous molecule CD95 by transformed B cells (Burkitt's lymphoma) is studied after activation by the CD40-CD40L interaction (Schattner et al., 1996). In such a model, the CD40L partner is expressed on transfected fibroblasts (3T6-CD40L) (Buelens et al., 1997). The BL41 Burkitt's lymphoma cells are incubated with non-transfected 3T6 fibroblasts (FIGS. 3A and 3C) or with 3T6 fibroblasts transfected by CD40L (FIGS. 3B and 3D). After 48 hours, the expression of CD95 is evaluated by flow cytometry. The expression of CD95 is induced in the presence of CD40L (FIG. 3B). A commercial anti-CD40L antibody inhibits the consequences of the CD40-CD40L interaction (FIG. 3D).
The antagonist effect is evaluated by measurement of the decrease in the expression of CD95 induced by the CD40L in the presence of the different chemical ligands (see Table I). With the help of these tests, the most interesting ligands are chosen to evaluate their activity in vivo and in vitro in more complex models.
The lymphoma B cells express the CD95 molecule when they receive a signal via the CD40 molecule, which they express in a constitutive manner. This signal is generally conveyed by the CD40L (CD154) molecule expressed by another cell. The antagonist ligands inhibit the binding of CD40 on CD40L and thus […] the expression of CD95. The agonist ligands copy the CD40L molecule and induce the expression of CD95 even in the absence of the cell expressing CD40L.
The BL41 Burkitt's lymphoma cells (5.10^5/ml) are cultured in the presence of 3T6 fibroblasts (10^5/ml) transfected (3T6-CD40L) or not transfected with CD40L (3T6), and treated with mitomycin to stop their proliferation. The ligands are added at the start of the culture at the chosen concentration. After culture for 48 hours, expression of the CD95 molecule is measured by flow cytometry. […]

MRL-lpr mice = assay: Development of lupus disease in MRL-lpr mice after intravenous injection; type: in vivo; conditions: 100 μg ligand i.v. in 100 μL PBS, 3 injections at 2-week interval, versus PBS; FIG. 5A

SMILES	effect on the expression of CD95 induced by CD40L (in words) (CD40-CD40L interaction; at 100 and 50 μM)	survival of MRL-lpr mice (MRL-lpr mice)	concentration giving the maximum inhibition of CD95 expression (CD40-CD40L interaction)	activity in CD95 inhibition relative to the linear ligand L3 (CD40-CD40L interaction; compared with L3, same peptide)
C[C@H](NC(=O)[C@H](CCCCNC(=O)[C@H](CCCCNC(=O)[C@H](CCCCNC(=O)[C@H](CCCCNC(=O)[C@H](CCCNC(=N)N)NC(=O)[C@@H]1CCCN1C[C@@H](N)CCCCN)NC(=O)[C@H](CCCNC(=N)N)NC(=O)[C@@H]1CCCN1C[C@@H](N)CCCCN)NC(=O)[C@H](CCCNC(=N)N)NC(=O)[C@@H]1CCCN1C[C@@H](N)CCCCN)NC(=O)[C@H](CCCNC(=N)N)NC(=O)[C@@H]1CCCN1C[C@@H](N)CCCCN)NC(=O)[C@H](CCCNC(=N)N)NC(=O)[C@@H]1CCCN1C[C@@H](N)CCCCN)C(=O)O [L1]	inhibited			
C[C@H]1NC(=O)[C@H](CCCCNC(=O)CCCCCNC(=O)[C@H](Cc2ccc(O)cc2)NC(=O)[C@H](Cc2ccc(O)cc2)NC(=O)CNC(=O)[C@@H](N)CCCCN)NC(=O)[C@@H](C)NC(=O)[C@H](CCCCNC(=O)CCCCCNC(=O)[C@H](Cc2ccc(O)cc2)NC(=O)[C@H](Cc2ccc(O)cc2)NC(=O)CNC(=O)[C@@H](N)CCCCN)NC(=O)[C@@H](C)NC(=O)[C@H](CCCCNC(=O)CCCCCNC(=O)[C@H](Cc2ccc(O)cc2)NC(=O)[C@H](Cc2ccc(O)cc2)NC(=O)CNC(=O)[C@@H](N)CCCCN)NC1=O [L4] (cyclo(K([Ahx-Tyr-Tyr-Gly-Lys])[dA]K([Ahx-Tyr-Tyr-Gly-Lys])[dA]K([Ahx-Tyr-Tyr-Gly-Lys])[dA]))		die significantly (p=0.0101) more quickly; also recorded: All of the mice treated with ligand L4 died	10 µM	approximately 10 times
